# Assay results taken from PubChem BioAssay AID449 (The Scripps Research Institute Molecular Screening Center, 2006).
# Sequences of proteins named here, by UniProt entry; tags and fusion partners are left off.
# UniProt P21453, whole entry, looked up: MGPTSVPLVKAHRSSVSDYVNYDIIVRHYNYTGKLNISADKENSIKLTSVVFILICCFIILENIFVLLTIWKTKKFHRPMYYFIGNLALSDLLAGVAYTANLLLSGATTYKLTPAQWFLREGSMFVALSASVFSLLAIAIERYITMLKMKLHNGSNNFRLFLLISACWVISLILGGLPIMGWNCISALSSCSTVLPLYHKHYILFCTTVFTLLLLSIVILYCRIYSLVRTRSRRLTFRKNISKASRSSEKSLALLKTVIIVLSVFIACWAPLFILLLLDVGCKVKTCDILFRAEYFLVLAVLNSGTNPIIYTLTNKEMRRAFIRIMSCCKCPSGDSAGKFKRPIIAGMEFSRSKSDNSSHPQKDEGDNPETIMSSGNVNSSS
# The list shows a part of the results. Further columns of the screen follow, without active or inactive calls. The list favours compounds with an active or inconclusive main result.
# Molecular target: Sphingosine 1-phosphate receptor 1 (Homo sapiens) (UniProt P21453)
# Assay: S1P1 agonists and agonism potentiators, primary screen, cell-based, primary and confirmation screens, CRE-bla reporter (AID 449);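 also: forskolin at 4 µM as EC80 and the EC20 agonist is SEW2871; 100% = SEW2871 at its EC100 plus forskolin at EC80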
# Conditions: S1P1 CRE-bla cells, forskolin, beta-lactamase FRET, potentiator mode; measured here: confirmation screen, triplicate average; at 9.5 µM; stronger effect = higher value; 100% = saturating reference agonist, 0% = basal; S1P1 agonist co-added at EC20, 2 nM
row,Structure (SMILES),activation
1,Cc1cc(/C=N/n2cnnc2)c(C)n1-c1ccc(OCc2ccccc2F)cc1,110%
2,CCCc1ccc(Oc2cn[nH]c2-c2ccc(O)c(C)c2O)cc1,75.9%
3,O=C(Nc1nccs1)c1ccc(S(=O)(=O)NCC2CCCCC2)cc1,65.2%
4,CCCC(=O)c1ccc(N2CCN(C(=O)c3ccccc3Br)CC2)c(F)c1,77.7%
5,CC1Cc2cc(-c3csc(NC(=O)Cc4cccs4)n3)ccc2N1S(C)(=O)=O (stereo unspecified),85.4%
6,CCOC(=O)c1cccc2c1-c1ccccc1/C2=N/O,72.5%
7,CCN(C(=O)c1ccc(C(C)(C)C)cc1)c1nnc(Cn2nnc3ccccc32)s1,113%
8,O=C(CSC1=NCCS1)Nc1ccnc2ccccc12,113%
9,Cn1nc(CC(=O)Nc2ccc3c(c2)OCCO3)c2ccccc2c1=O,101%
10,Cc1cc(N2CCN(c3nc4ccccc4s3)CC2)n2ncnc2n1,92.3%
11,Cc1cc(/C=c2/sc3nc4ccccc4n3c2=O)c(C)n1-c1ccccn1,103%
12,CC(C)(CC(=O)N1CCN(c2ccc(Cl)cc2)CC1)CC1=NS(=O)(=O)c2ccccc2N1,112%
13,CC(NC(=O)Nc1nnc(C(F)(F)F)s1)(C(F)(F)F)C(F)(F)F,118%
14,Cc1ccc(-n2ncc3c(N4CCCC(C)C4)ncnc32)c(C)c1 (stereo unspecified),78.4%
15,CCOC(=O)C1CCN(c2ncnc3c2oc2ccccc23)CC1,69.6%
16,COc1ccc2c(c1)CCc1c(C(=O)Nc3ccc(OC)c(OC)c3)noc1-2,100%
17,Clc1ccc(-n2nnnc2Sc2ncnc3sccc23)cc1,98%
18,CCN(CC)c1ccc2cc(NC(=O)CCC(=O)O)c(=O)oc2c1,61.6%
19,O=C(c1ccccc1)C(CCC(CN1CCOCC1)C(=O)c1ccccc1)CN1CCOCC1 (stereo unspecified),86.8%
20,COc1ccc(NC(=O)c2cc(-c3cccs3)on2)cc1OC,66%
21,CCCn1c(CN2CCN(c3cccc(Cl)c3)CC2)nc2c1c(=O)n(C)c(=O)n2C,108%
22,CC1(C)CC(=O)C(C=Nc2ccc3[nH]ncc3c2)=C(O)C1,75.3%
23,Cc1ccc2[nH]c3c(N4CCCCCC4)ncnc3c2c1,114%
24,CCc1c(C)nc2ncnn2c1NCCc1ccc(OC)cc1,62.7%

# Copied from the list:
# COc1ccc2c(c1)CCc1c(C(=O)Nc3ccc(OC)c(OC)c3)noc1-2 | activation: 100%
# CC(NC(=O)Nc1nnc(C(F)(F)F)s1)(C(F)(F)F)C(F)(F)F | activation: 118%
# CCCn1c(CN2CCN(c3cccc(Cl)c3)CC2)nc2c1c(=O)n(C)c(=O)n2C | activation: 108%
# CCOC(=O)C1CCN(c2ncnc3c2oc2ccccc23)CC1 | activation: 69.6%
# Cc1ccc2[nH]c3c(N4CCCCCC4)ncnc3c2c1 | activation: 114%
# O=C(Nc1nccs1)c1ccc(S(=O)(=O)NCC2CCCCC2)cc1 | activation: 65.2%

# The results go on:

row,Structure (SMILES),activation
1,COc1ccc(-c2nc(-c3ccncc3)no2)cc1OC,97%
2,c1ccc(N2CCN(c3ncnc4c3oc3ccccc34)CC2)cc1,76.7%
3,O=S1(=O)C=C(Sc2nc3ccccc3s2)c2ccccc21,118%
4,CC(C)(C)OC(=O)N[C@@H](Cc1ccccc1)c1nnc(S(=O)(=O)Cc2ccccc2)o1,98.8%
5,Cc1cc(C(=O)Nc2sc(C)c(-c3ccc(F)cc3)c2C(N)=O)no1,86.9%
6,CCc1oc2ccccc2c1C(=O)c1cc(Br)c(O)c(Br)c1,91.5%
7,O=C(Nc1nc(-c2ccc(Cl)s2)cs1)c1ccncc1,89.8%
8,CCCc1ccc(OCc2nc(-c3ccc(NC(=O)c4ccco4)cc3)no2)cc1,71.3%
9,CC(C)c1ccc2oc(-c3cc(N)ccc3O)nc2c1,66.5%
10,CC1=C(C(=O)OCc2ccc3c(c2)OCO3)C(c2ccc(F)cc2)NC(=O)N1 (stereo unspecified),83%
11,Cc1nn(-c2nc3ccccc3s2)c(N)c1-c1ccccc1,95.2%
12,O=S1(=O)Nc2c(ccc3cccnc23)-c2ccccc21,62.7%
13,O=S(=O)(CCSc1ccccn1)c1nc2ccccc2s1,73.7%
14,Cc1csc(SCC(=O)c2cc(C)n(Cc3cccs3)c2C)n1,79%
15,c1ccc(CNc2ncnc3ccccc23)cc1,98.3%
16,COc1ccc(-c2noc(-c3cc(C)cc(C)c3)n2)cc1OC,93.4%
17,CC(C)Oc1cc(O)c2c(=O)c(-c3ccc(O)cc3)coc2c1,88.2%
18,O=C(Nc1cccc(C(F)(F)F)c1)C1CCCN1S(=O)(=O)c1cccc2cccnc12 (stereo unspecified),65.6%
19,Clc1ccc(OCCN2CCN(c3ncnc4sccc34)CC2)cc1,115%
20,Cc1ccc(-c2nnc(SCc3ccccc3F)o2)cc1,89%
21,C=CS(=O)(=O)c1ccc(Oc2ccc(S(=O)(=O)C=C)cc2)cc1,122%
22,O=C(Nc1ccc(Cl)cc1)N1CCC(c2nc(-c3ccc(F)cc3)no2)CC1,82.5%
23,CC(C)Cn1c(N)c(C(=O)CSc2ccc3c(c2)OCCO3)c(=O)n(C)c1=O,119%
24,Cn1c(C(=O)N2CCCc3ccccc32)cc2sccc21,88.3%

row,Structure (SMILES),activation
1,CCc1ccc(S(=O)(=O)NCCc2csc(-c3ccccc3)n2)s1,110%
2,COc1ccc(CCNc2c(C)c(C)nc3ncnn23)cc1,104%
3,CCN(C(=O)C1CCCCC1)c1nnc(-c2cccnc2)s1,67%
4,Cc1ccc(Cl)cc1N1CCN(C(=O)C2CCN(c3nnc(-n4cccc4)s3)CC2)CC1,55%
5,O=C(CSc1nnc(Cc2csc(Nc3cccc(Cl)c3)n2)o1)N1CCc2ccccc21,85.9%
6,CCC(C)c1ccc2oc(-c3ccc(NC(=O)c4ncn[nH]4)cc3)nc2c1 (stereo unspecified),104%
7,Cc1oc(-c2ccccc2)nc1Cn1cccc1C1=NC(c2ccccc2)CO1 (stereo unspecified),102%
8,CCCCn1nnnc1SCC(=O)c1ccc(C)c(C)c1,75.2%
9,CCOC(=O)c1ccc2nc(NC(=O)c3ccco3)sc2c1,59.8%
10,CCCCOc1ccc(S(=O)(=O)Nc2cccnc2)cc1,93.7%
11,COc1ccccc1N/C(N)=N/c1nc(CSc2ccc(C)cc2)cc(=O)[nH]1,77.8%
12,O=C(Nc1ccc(C(F)(F)F)cc1)C1CCCN1S(=O)(=O)c1cccc2cccnc12 (stereo unspecified),63.9%
13,CCC(NC(=O)Nc1nnc(C(F)(F)F)s1)(C(F)(F)F)C(F)(F)F,117%
14,OC(c1cccc(OCc2ccccc2)c1)c1nnc(-c2ccccc2)o1 (stereo unspecified),101%
15,CCC1CCCCN1C(=O)CSc1nnc(-c2c[nH]c3ccccc23)o1 (stereo unspecified),61%
16,Brc1ccc2ncnc(Nc3ccc(N4CCOCC4)cc3)c2c1,61.1%
17,Cc1cccc(OCCCCc2c(C)n[nH]c2C)c1C,95.8%
18,Cc1nnc2ccc(Oc3ccc(-c4ccccc4)cc3)nn12,56.1%
19,COCCN(C(=O)c1ccccc1)c1nnc(-c2cccnc2)s1,78.1%
20,Cc1cc(C(=O)N2CCN(C(c3ccccc3)c3ccccc3)CC2)on1,67%
21,COc1ccccc1-c1nc(-c2cccc(C)c2)no1,92.3%
22,Cc1ccc(OCCn2cc(/C(N)=N/O)c3ccccc32)cc1C,69.8%
23,CCCC(=O)Nc1ccc(-c2nc3cc(C)c(C)cc3o2)cc1,79.6%
